# The supplement of paper PMC3334620
# Over roughly 33,000 sequences, “E-score (-0.5 to 0.5)” has its median near -0.015; the highest 2% begin near 0.3. The list shows a part of the results.
# Target: T1, Abf1 (UniProt P14164)
# T1 sequence: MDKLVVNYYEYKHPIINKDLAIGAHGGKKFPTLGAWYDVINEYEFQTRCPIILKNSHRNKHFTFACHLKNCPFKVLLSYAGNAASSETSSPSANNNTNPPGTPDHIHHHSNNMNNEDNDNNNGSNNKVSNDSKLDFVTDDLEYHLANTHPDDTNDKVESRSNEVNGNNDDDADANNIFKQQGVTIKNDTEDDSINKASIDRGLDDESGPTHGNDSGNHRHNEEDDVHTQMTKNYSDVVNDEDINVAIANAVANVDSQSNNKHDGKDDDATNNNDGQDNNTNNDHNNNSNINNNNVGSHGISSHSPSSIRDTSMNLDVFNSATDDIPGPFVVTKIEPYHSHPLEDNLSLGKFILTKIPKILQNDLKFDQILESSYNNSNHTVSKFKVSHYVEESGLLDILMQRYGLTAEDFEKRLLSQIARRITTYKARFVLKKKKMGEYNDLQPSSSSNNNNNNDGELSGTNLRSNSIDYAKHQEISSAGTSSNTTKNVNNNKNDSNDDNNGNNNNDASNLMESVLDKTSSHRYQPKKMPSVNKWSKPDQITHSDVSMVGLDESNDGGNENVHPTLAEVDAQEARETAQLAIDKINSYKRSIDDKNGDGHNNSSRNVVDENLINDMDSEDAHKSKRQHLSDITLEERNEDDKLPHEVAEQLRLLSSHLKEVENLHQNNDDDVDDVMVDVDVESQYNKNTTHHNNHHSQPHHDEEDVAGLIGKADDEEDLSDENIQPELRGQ
# Assay: PBM E-score (8-mer binding enrichment) (E-score (-0.5 to 0.5)); higher = stronger / more preferred TF binding
# Conditions: protein concentration: 200 nM; construct: GST-full length
# Method in brief: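 GST-tagged yeast TFs (full-length or DNA-binding domain) were made by PURExpress in vitro transcription/translation and applied at about 100-200 nM to universal all-10-mer Agilent arrays. The arrays were made double-stranded by primer extension, on fresh or once-stripped slides. Bound protein was detected with fluorescent anti-GST, and scans were normalised with masliner. Each ungapped eight-base word, pooled with its reverse complement, received an E-score (modified Wilcoxon-Mann-Whitney statistic) from the Universal PBM Analysis Suite.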
row,Sequence,PBM E-score
1,GGCCTTCA,-0.107
2,CACGTATG,0.00529
3,CGGAATCA,0.00134
4,CTCCCACA,-0.224
5,GCTTGTCA,0.294
6,ACACGGGA,0.19
7,CAATTTGG,0.00722
8,AACCGACA,0.162
9,CGTACCGC,0.183
10,AATATACG,0.189
11,CGTGTCGA,0.0515
12,GCAATAAA,0.139
13,AGCCTACC,-0.353
14,CAGGCAAC,-0.027
15,CATAACTC,-0.00554
16,TACTCCCA,0.0371
17,CTGGTCAC,0.0991
18,CAGGCTAC,0.0501
19,CGCATATC,0.239
20,GCCCCAGA,-0.182
21,CATGATCG,0.0839
22,CCACACCC,-0.227
23,AAGTCTAC,-0.0157
24,CCGCACTC,-0.0386
25,ATAAATTC,0.0233

row,Sequence,PBM E-score
1,AACAAGGT,-0.0738
2,AAGCATAT,0.103
3,AACCTTCA,-0.176
4,CAAAGCCC,-0.177
5,AGGAGTTG,0.106
6,ACGTGGAC,0.148
7,CGGCTAGA,-0.191
8,ACCGGACA,-0.178
9,CCGAGAAG,-0.148
10,CCGACAAA,-0.0368
11,AGTTCACG,0.205
12,CCTGGCGC,-0.203
13,CGCTTCGC,-0.0601
14,AAGTTCAC,-0.039
15,CAACTCCC,0.0133
16,ATAGTGTC,0.15
17,CGGTGAGC,0.00518
18,CCTGTCTA,-0.143
19,AACCGAAC,-0.132
20,CCGCTCGA,-0.0978
21,CGCAAGTA,-0.0802
22,TGTTATAA,0.114
23,GCGGAGAA,-0.133
24,AATGGACA,0.139
25,ATTCACGG,0.13

row,Sequence,PBM E-score
1,AGCTAGTG,-0.15
2,GTTAAGAA,0.0526
3,CCTCGTGA,0.363
4,CCCTGTAC,0.00397
5,AACCCAAT,0.0745
6,CAACCCAC,0.039
7,ATTTCTTG,0.167
8,ATCCATCC,0.0564
9,ACAAGGTC,-0.0142
10,AAGTCCAT,0.00815
11,GACGCAAC,-0.0321
12,CATCATGC,0.128
13,AAGCGGAA,-0.123
14,GTAAGCCA,-0.0838
15,GCACTTCA,-0.0964
16,CCTCGAAC,-0.211
17,CTCTCGGA,0.061
18,CATCACCG,0.137
19,CGGATCTC,-0.0378
20,CATATAAA,0.202
21,TCTGAAAA,-0.132
22,ATGCAAAA,0.113
23,GAGCCACC,-0.254
24,CCCATCCG,-0.257
25,CATTATGC,0.139

row,Sequence,PBM E-score
1,GGGACACA,-0.0891
2,CCCATATA,-0.0522
3,AGTGAAAC,-0.0253
4,GAGTTACA,0.081
5,CATATGAC,0.107
6,ATATTCTC,0.169
7,CAGCCTTA,-0.0785
8,AAGTGGAA,-0.126
9,CAATAATA,0.076
10,CCCAAACC,0.088
11,AACGGTGC,0.228
12,ACTGGGCC,-0.237
13,CGAACCTC,0.137
14,AGCTGAAG,-0.229
15,AGCACCGC,-0.0172
16,ACCGCACC,-0.213
17,AACCATAA,-0.125
18,TAGAAGCA,-0.0239
19,AGGTGTTG,-0.111
20,TCATTCAA,0.153
21,GTGTCGGA,0.0611
22,GGAGTGAA,-0.0623
23,GTACGCAA,0.115
24,GCAGTTTA,-0.0444
25,CTGAGGGA,0.00291

# Exported tab-delimited: entries from further up.
row	Sequence	PBM E-score
10	CCGACAAA	-0.0368
11	AGTTCACG	0.205
12	CCTGGCGC	-0.203
13	CGCTTCGC	-0.0601
14	AAGTTCAC	-0.039
15	CAACTCCC	0.0133
16	ATAGTGTC	0.15
17	CGGTGAGC	0.00518
18	CCTGTCTA	-0.143
19	AACCGAAC	-0.132
20	CCGCTCGA	-0.0978
21	CGCAAGTA	-0.0802
22	TGTTATAA	0.114
23	GCGGAGAA	-0.133
24	AATGGACA	0.139
25	ATTCACGG	0.13
1	AGCTAGTG	-0.15
2	GTTAAGAA	0.0526
3	CCTCGTGA	0.363
4	CCCTGTAC	0.00397
5	AACCCAAT	0.0745
6	CAACCCAC	0.039
7	ATTTCTTG	0.167
8	ATCCATCC	0.0564
9	ACAAGGTC	-0.0142
10	AAGTCCAT	0.00815
11	GACGCAAC	-0.0321
12	CATCATGC	0.128
13	AAGCGGAA	-0.123
14	GTAAGCCA	-0.0838
15	GCACTTCA	-0.0964
16	CCTCGAAC	-0.211
17	CTCTCGGA	0.061
18	CATCACCG	0.137
19	CGGATCTC	-0.0378
20	CATATAAA	0.202
21	TCTGAAAA	-0.132
22	ATGCAAAA	0.113
23	GAGCCACC	-0.254
24	CCCATCCG	-0.257
25	CATTATGC	0.139
1	GGGACACA	-0.0891
2	CCCATATA	-0.0522
3	AGTGAAAC	-0.0253
4	GAGTTACA	0.081
5	CATATGAC	0.107
6	ATATTCTC	0.169
7	CAGCCTTA	-0.0785
8	AAGTGGAA	-0.126
9	CAATAATA	0.076
10	CCCAAACC	0.088
11	AACGGTGC	0.228
12	ACTGGGCC	-0.237
13	CGAACCTC	0.137
14	AGCTGAAG	-0.229
15	AGCACCGC	-0.0172
16	ACCGCACC	-0.213
17	AACCATAA	-0.125
18	TAGAAGCA	-0.0239
19	AGGTGTTG	-0.111
20	TCATTCAA	0.153
21	GTGTCGGA	0.0611
22	GGAGTGAA	-0.0623
23	GTACGCAA	0.115
24	GCAGTTTA	-0.0444
25	CTGAGGGA	0.00291

# Next part.

row,Sequence,PBM E-score
1,AATCAAGG,0.0183
2,CTAGCAGA,0.108
3,CCCAAGTA,-0.16
4,CCCGGCAC,-0.0816
5,AGAGTCTA,-0.157
6,CGCACACG,0.146
7,GGGACCTA,-0.0298
8,GTCAAGAA,0.141
9,ATTGTGAC,0.214
10,ATTTAAAA,0.14
11,CACACGCC,0.0223
12,CTAATTCC,0.0379
13,AGGCGCAT,-0.0512
14,AGTCACGG,0.154
15,CGCTTTGC,0.056
16,GTCTTCTA,-0.12
17,CAAGCGCG,-0.138
18,AGAAAGGG,-0.181
19,GGCTAATA,0.0305
20,ATCGAGAA,0.154
21,AAGCAGTA,-0.245
22,CACCTAAA,-0.0302
23,CATGGTCA,0.0681
24,GCGTAGCC,-0.176
25,ACAAGCTG,0.00656

row,Sequence,PBM E-score
1,CGAGATCC,-0.0372
2,AGGAGGTG,-0.248
3,CTGGCCGA,-0.294
4,GTACTGAA,0.0134
5,ACAATGGC,-0.0674
6,CGGATCCC,-0.126
7,AGACTTGC,-0.0934
8,CTGGCAGC,-0.226
9,AGCATTTA,-0.143
10,ACGCGTCC,-0.0434
11,GACCCGAA,-0.362
12,CCTAAGGC,-0.171
13,GATAGGCC,-0.00902
14,GATTACCC,0.146
15,CAAAATCG,0.188
16,ACGTCCCG,0.0929
17,ACCGCCAT,-0.126
18,CTTCGCCA,-0.0613
19,AAGCCCAC,-0.0363
20,GCGAGACA,0.00223
21,CAATCATC,0.12
22,AGTTCTGG,-0.15
23,CAATCATG,0.0428
24,ACCATGCA,0.148
25,GATTCGCA,-0.00486

row,Sequence,PBM E-score
1,CTTTACAC,0.17
2,GCTGGCCC,-0.342
3,AAGCGTCC,-0.114
4,CAGCAGAG,-0.263
5,AGATATGC,0.123
6,ACTTGTGC,-0.0722
7,CAAAGAGA,-0.0578
8,AAAAGTCA,0.186
9,CGCTAAAG,-0.0174
10,AAGGTACA,-0.111
11,AAATCCTC,-0.238
12,ATAACTCC,0.112
13,TCGTTGAA,0.289
14,CTAGGTAC,0.134
15,ACCGAGCT,-0.198
16,GGATGCCC,-0.0335
17,CATATACA,0.0274
18,ATATTCCA,0.16
19,CATCCCAG,-0.00556
20,ATGGTCAA,0.203
21,CATAGTGA,0.202
22,CGCAGACA,-0.104
23,CTATTTTC,0.0169
24,ATGACGGC,0.0817
25,CGAGGAAA,-0.0178

row,Sequence,PBM E-score
1,CTGCACCC,-0.316
2,GCGCTGAC,-0.185
3,CTGTATAC,0.0574
4,GTCAGTCA,0.0751
5,GTCACCTA,0.154
6,ACGATTGC,0.223
7,ACTTAATC,0.056
8,GGCATCAC,0.0726
9,GGTATCAC,0.246
10,AGCCTAGG,-0.302
11,ACCTTAAA,0.125
12,AATTCGGT,0.203
13,AGGTTTTC,0.0704
14,ACAGATAC,0.0423
15,GTACAGCA,0.00695
16,ATACACAT,0.115
17,CTGGTGAA,-0.149
18,CTACGTAC,0.297
19,ACGGAACC,0.231
20,GAATAATA,0.235
21,ACAAGGAT,0.0172
22,GACGGTTA,0.0209
23,ATCGGTCA,0.0516
24,CATTATCG,0.0198
25,CCTATACA,-0.125

row,Sequence,PBM E-score
1,CACGGTGC,0.0971
2,CCATCGCC,-0.204
3,ACGGGGGA,0.0699
4,ACGACCCG,0.166
5,ATAAAAAG,0.18
6,GGGAATAA,0.086
7,AAAGCGAC,0.242
8,CCGCTATC,-0.0439
9,CTCTGCAC,-0.168
10,AAAGCACT,-0.0166
11,AATACGCC,-0.158
12,GGATTTGA,-0.0358
13,CGTCCCCA,0.0653
14,AGCACCAA,-0.00651
15,AAGGATTG,-0.173
16,ACATCGTG,0.185
17,CATCTCAC,0.137
18,CTCTCTCA,-0.104
19,CTCCGGCC,-0.212
